The values that follow come from IntAct's records for PubMed 20802522.

The labels stand for the following.
B1: Transcriptional activator Myb (Homo sapiens), P10242 (parent)
chain: MARRPRHSIYSSDEDDEDFEMCDHDYDGLLPKSGKRHLGKTRWTREEDEKLKKLVEQNGTDDWKVIANYLPNRTDVQCQHRWQKVLNPELIKGPWTKEEDQRVIELVQKYGPKRWSVIAKHLKGRIGKQCRERWHNHLNPEVKKTSWTEEEDRIIYQAHKRLGNRWAEIAKLLPGRTDNAIKNHWNSTMRRKVEQEGYLQESSKASQPAVATSFQKNSHLMGFAQAPPTAQLPATGQPTVNNDYSYYHISEAQNVSSHVPYPVALHVNIVNVPQPAAAAIQRHYNDEDPEKEKRIKELELLLMSTENELKGQQVLPTQNHTCSYPGWHSTTIADHTRPHGDSAPVSCLGEHHSTPSLPADPGSLPEESASPARCMIVHQGTILDNVKNLLEFAETLQFIDSFLNTSSNHENSDLEMPSLTSTPLIGHKLTVTTPFHRDQTVKTQKENTVFRTPAIKRSILESSPRTPTPFKHALAAQEIKYGPLKMLPQTPSHLVEDLQDVIKQESDESGIVAEFQENGPPLLKKIKQEVESPTDKSGNFFCSHHWEGDSLNTQLFTQTSPVADAPNILTSSVLMAPASEDEDNVLKAFTVPKNRSLASPLQPCSSTWEPASCGKMEEQMTSSSQARKYVNAFSARTLVM

The variants in one assay derive from B1. The following applies: with sumo2_human SUMO2, P61956.
As to V267A;I269A;V270A, the “effect of a mutation on the interaction” value is listed as “decreasing interaction”.

In a further assay the parent is B1. The following applies: with sumo2_human SUMO2, P61956. The source holds these as a separate data set.
V267I;V270I: the “effect of a mutation on the interaction” value is listed as “increasing interaction”.
